According to the supplement of paper PMC12823440, “Inhibitors supercharge kinase turnover through native proteolytic circuits” (Nature, 2025):
Structures can show the parent of a compound that is named as a salt. Some of the results follow. The calls rarely recur for the same compound in another form.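 Kinases were expressed as nanoluciferase fusions in K562 cells and luminescence was read every 4 h between 2 and 18 h as percent of control, DMSO set to 100% and a positive control to 0%. A time point counts as decreased when the signal drops significantly (2 sigma). The hit call is the authors' own, does not follow from the count of time points alone, and its rule is not shown.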

Sequences of proteins named here, by UniProt entry; tags and fusion partners are left off. A change or cut given only in a name is not applied to a line headed by its entry.
UniProt Q96KB5: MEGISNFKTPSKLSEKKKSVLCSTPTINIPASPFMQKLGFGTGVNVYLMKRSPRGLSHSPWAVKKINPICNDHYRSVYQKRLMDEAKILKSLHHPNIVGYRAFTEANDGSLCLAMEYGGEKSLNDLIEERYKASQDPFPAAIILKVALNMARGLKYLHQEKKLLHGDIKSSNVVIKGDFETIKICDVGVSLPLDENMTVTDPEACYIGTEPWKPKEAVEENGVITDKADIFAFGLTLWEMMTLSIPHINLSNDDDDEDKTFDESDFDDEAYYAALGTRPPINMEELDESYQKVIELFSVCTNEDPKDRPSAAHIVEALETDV

biological target: PBK (UniProt Q96KB5); assay: kinase-Nluc reporter destabilization hit call (1 = scored as downregulated) (binary); higher = compound decreases kinase abundance; settings: K562; 2-18 h

kinase-Nluc reporter destabilization hit call, inactive:
CC(C1CC1)n1cnc2c(NCc3cccc(C(F)(F)F)c3)nc(NCCN(C)C)nc21 (stereo not drawn) (10 µM) 0, COc1cc2nc(NC3CC3)nc(NC3CCN(C(C)C)CC3)c2cc1OC (10 µM) 0, Cc1nn(CC(F)(F)F)cc1Nc1ncc(Br)c(NCc2ccc(S(N)(=O)=O)cc2)n1 (10 µM) 0, N#C/C(=C/c1ccc(O)c(O)c1)C(=O)N1CCc2ccccc21 [Tyrphostin AG 528] (10 µM) 0, Cc1nc2c(NCc3cccc(S(C)(=O)=O)c3)nccn2c1-c1ccc(O)c(F)c1 (10 µM) 0, CN(C)c1cc[n+](Cc2ccc(OCCOc3ccc(C[n+]4ccc(N(C)C)cc4)cc3)cc2)cc1 (10 µM) 0, O=C1CCC(N2C(=O)c3cccc(OCCCCCOc4ccc(CC(=O)Nc5cc(C6CCC6)[nH]n5)cc4)c3C2=O)C(=O)N1 (stereo not drawn) [PROTAC CDK9 Degrader-1] (10 µM) 0, CCOc1cc(=O)[nH]cc1-c1ccc(CC(=O)Nc2cc(C(C)(C)C(F)(F)F)on2)c(F)c1 (10 µM) 0, O=C(O)/C=C(\CCc1ccc(Cl)cc1)c1ccccc1 (10 µM) 0, CCc1c(C(=O)NNC(=O)[C@H](O)c2cc(F)cc(F)c2)ccc(O)c1C (10 µM) 0, O=c1cc(N2CCOCC2)oc2c(-c3cccc4c3sc3ccccc34)cccc12 (10 µM) 0, CN1CCN(c2ccc(-n3cc(-c4ccncc4OCC4CCNCC4)cn3)cc2)CC1 [MELK-8a (hydrochloride)] (10 µM) 0, Cc1ccc(C2CC(=O)NC(SCC(=O)Nc3nccs3)=C2C#N)cc1 (stereo not drawn) [Necrostatin-34] (10 µM) 0, CNc1cc2c(Nc3cccc(Br)c3)ncnc2cn1 (10 µM) 0, Cn1cc(-c2nc(N[C@@H]3CCCC[C@@H]3N)c(F)c3c2C(=O)NC3)cn1 [TAK-659 (hydrochloride)] (2 µM) 0, CC(=O)Nc1nc(C)c(-c2cc(C)c3c(c2)CN([C@@H](C)C2CC2)C3=O)s1 (10 µM) 0, CN(C)c1ccc(/C=C2\C(=O)Nc3ccccc32)c2ccccc12 (10 µM) 0, COc1ccc(-c2cc(=O)c3c(O)cc(O)cc3o2)cc1-c1c(O)cc(O)c2c(=O)cc(-c3ccc(O)cc3)oc12 [Bilobetin] (2.5 µM) 0, O=C(NCc1ccn[nH]1)c1cc([C@@H]2CCNC[C@H]2COc2ccc3c(c2)OCO3)ccc1F [GRK2-IN-1 (hydrochloride)] (10 µM) 0, Nc1ccc(C(=O)Nc2cccc(-c3nc(N4CCOCC4)c4oc5ncccc5c4n3)c2)cn1 (10 µM) 0, CCOC(=O)c1c(C)[nH]c(C=C2C(=O)Nc3ccccc32)c1C (10 µM) 0, CCCS(=O)(=O)N[C@H]1C[C@@H](N(C)c2ncnc3[nH]ccc23)C1 [Abrocitinib] (10 µM) 0, O=[N+]([O-])c1ccc(-c2nc(-c3ccc(F)cc3)c(-c3ccncc3)[nH]2)cc1 (10 µM) 0, O=C(O)c1c[nH]c2cc(Cl)c(-c3ccc(C4(O)CCC4)cc3)cc12 (10 µM) 0, CN1CCC(Nc2nc(Nc3ccc(Oc4ccccc4)cc3)c3c(=O)[nH]cc(Br)c3n2)CC1 (2.5 µM) 0, CO[C@]1(C(=O)N[C@@H](C)c2ccc(-n3cc(F)cn3)nc2)CC[C@H](c2nc(C)cc(Nc3cc(C)[nH]n3)n2)CC1 [Pralsetinib] (10 µM) 0, COc1c(Nc2ncc(Cl)c(N[C@H]3[C@@H](C(N)=O)[C@@H]4C=C[C@H]3C4)n2)ccc2c1CC[C@@H](N1CCOCC1)CC2 (10 µM) 0, CN1CCN(Cc2ccc(-c3cn(C4CCC(O)CC4)c4nc(NCCC5CC5)ncc34)cc2)CC1 (stereo not drawn) (2.5 µM) 0, C[C@@H]1COC(Nc2ccc3ncnc(Nc4ccc(OCc5nccs5)c(Cl)c4)c3c2)=N1 [Varlitinib] (10 µM) 0, CC(C)n1cnc2c(Nc3cccc(Cl)c3)nc(N[C@H]3CCCC[C@@H]3N)nc21 (2.5 µM) 0, Cc1n[nH]c2ncc(C(=O)N3CCC[C@H]3c3ccc(Cl)cc3)cc12 (10 µM) 0, COc1ccc2cc1Oc1ccc(cc1)C[C@H]1c3cc(c(OC)cc3CCN1C)Oc1c(O)c(OC)cc3c1[C@H](C2)N(C)CC3 [Fangchinoline] (2.5 µM) 0, CS[C@@]1(C(=O)Nc2ccc3[nH]nc(-c4ccc(OC(C)C)nc4)c3c2)CCN(CC(=O)N2CC=C(c3ccc(-c4ncn(C)n4)cc3)CC2)C1 (2.5 µM) 0, CC/C(=C(\c1ccccc1)c1ccc(OCCNC)cc1)c1ccccc1 [N-Desmethyltamoxifen (hydrochloride)] (2.5 µM) 0, CNC(=O)CN1CCC(Oc2cc3c(Nc4cccc(Cl)c4F)ncnc3cc2OC)CC1 [Sapitinib] (10 µM) 0, O=CN1CCN(c2ccc(C=C3C(=O)Nc4ccccc43)cc2)CC1 (10 µM) 0, CCCCC(=O)OCC(=O)[C@]1(O)Cc2c(O)c3c(c(O)c2[C@@H](O[C@H]2C[C@H](NC(=O)C(F)(F)F)[C@H](O)[C@H](C)O2)C1)C(=O)c1c(OC)cccc1C3=O [Valrubicin] (10 µM) 0, Fc1ccc(Cl)cc1-c1nc(Nc2ccncc2)c2nccnc2n1 (10 µM) 0
